Results are given in words; binding and its absence hold for the method and conditions named. Binding seen in cells or lysates may run through a third protein. Here binding means that the protein was enriched with, or labelled near, the bait; the list need not be complete.
Molecular target: T1, CD133 (human (endogenous in CCC stem cells)) (UniProt O43490)
T1 sequence: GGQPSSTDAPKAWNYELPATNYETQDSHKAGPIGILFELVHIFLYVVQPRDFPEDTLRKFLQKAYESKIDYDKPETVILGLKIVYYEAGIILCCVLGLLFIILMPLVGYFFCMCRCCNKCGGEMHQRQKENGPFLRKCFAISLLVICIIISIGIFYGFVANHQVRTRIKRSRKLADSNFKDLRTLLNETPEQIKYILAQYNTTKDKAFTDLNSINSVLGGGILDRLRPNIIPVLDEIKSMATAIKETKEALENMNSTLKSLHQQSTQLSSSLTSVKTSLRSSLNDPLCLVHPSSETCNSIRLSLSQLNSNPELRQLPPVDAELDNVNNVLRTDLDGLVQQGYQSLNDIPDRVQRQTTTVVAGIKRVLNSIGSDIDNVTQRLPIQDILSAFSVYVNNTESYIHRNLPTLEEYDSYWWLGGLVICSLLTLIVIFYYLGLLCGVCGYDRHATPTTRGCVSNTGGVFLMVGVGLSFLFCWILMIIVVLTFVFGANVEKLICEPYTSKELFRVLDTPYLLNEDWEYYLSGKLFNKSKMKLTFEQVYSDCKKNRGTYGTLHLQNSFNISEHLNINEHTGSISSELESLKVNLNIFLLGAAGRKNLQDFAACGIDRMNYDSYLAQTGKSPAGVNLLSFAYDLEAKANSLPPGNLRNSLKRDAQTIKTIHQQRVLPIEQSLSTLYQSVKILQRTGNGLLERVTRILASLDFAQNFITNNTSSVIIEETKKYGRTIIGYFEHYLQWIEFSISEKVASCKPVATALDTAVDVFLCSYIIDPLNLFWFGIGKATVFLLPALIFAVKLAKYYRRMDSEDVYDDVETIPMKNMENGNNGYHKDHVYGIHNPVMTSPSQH
Assay: affinity purification with mass spectrometry; endogenous CD133 immunoprecipitated from the membrane fraction of CCC stem cells with anti-CD133 immobilised to Activated CH-Sepharose 4B; lysis buffer 50 mM HEPES-NaOH pH 7.5, 150 mM NaCl, 1% NP40, 1 mM dithiothreitol; 4 h at 4°C; eluted with 100 mM Glycine-HCl; LC-MS

B1: plakoglobin (protein, UniProt P14923 1-745)
chain: MEVMNLMEQPIKVTEWQQTYTYDSGIHSGANTCVPSVSSKGIMEEDEACGRQYTLKKTTTYTQGVPPSQGDLEYQMSTTARAKRVREAMCPGVSGEDSSLLLATQVEGQATNLQRLAEPSQLLKSAIVHLINYQDDAELATRALPELTKLLNDEDPVVVTKAAMIVNQLSKKEASRRALMGSPQLVAAVVRTMQNTSDLDTARCTTSILHNLSHHREGLLAIFKSGGIPALVRMLSSPVESVLFYAITTLHNLLLYQEGAKMAVRLADGLQKMVPLLNKNNPKFLAITTDCLQLLAYGNQESKLIILANGGPQALVQIMRNYSYEKLLWTTSRVLKVLSVCPSNKPAIVEAGGMQALGKHLTSNSPRLVQNCLWTLRNLSDVATKQEGLESVLKILVNQLSVDDVNVLTCATGTLSNLTCNNSKNKTLVTQNSGVEALIHAILRAGDKDDITEPAVCALRHLTSRHPEAEMAQNSVRLNYGIPAIVKLLNQPNQWPLVKATIGLIRNLALCPANHAPLQEAAVIPRLVQLLVKAHQDAQRHVAAGTQQPYTDGVRMEEIVEGCTGALHILARDPMNRMEIFRLNTIPLFVQLLYSSVENIQRVAAGVLCELAQDKEAADAIDAEGASAPLMELLHSRNEGTATYAAAVLFRISEDKNPDYRKRVSVELTNSLFKHDPAAWEAAQSMIPINEPYGDDMDATYRPMYSSDVPLDPLEMHMDMDGDYPIDTYSDGLRPPYPTADHMLA
binding: binds

Reference: paper PMC3542344
